Values from PubChem BioAssay AID504764 (Drosophila RNAi Screening Center, 2011).

Screen: 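Genome-wide screen for regulators of Notch-driven gene expression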 (primary screen)
Cells: Drosophila Kc167 cells
Knock-down reagent: long dsRNA against Drosophila genes
Time to read-out: about 5 days (4 days dsRNA, then 24 h after transfection)
Challenge: transfection of constitutively active membrane-tethered Notch lacking the extracellular domain, read 24 h later
Detection: 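Firefly luciferase from an E(spl)m3 reporter with active Notch, plus control-promoter and uninduced reporter wells for normalisation; unnormalised counts, duplicate wells a and b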
Direction: induced reporter light, run 1, well a and induced reporter light, run 1, well b: higher = more light from the Notch target reporter with active Notch; control promoter light, run 1, well a and control promoter light, run 1, well b: higher = more light from the viral control promoter (cell number, transfection, viability); uninduced reporter light, run 1, well a: higher = more light from the Notch target reporter without active Notch
Hit rule: 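Wells with low control signal or poorly matching duplicates excluded; duplicates averaged; per source plate, z beyond ±2 for induced/control log2 ratio or beyond ±1.8 for induced/uninduced marks a hit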
Meaning of the calls: active = modifier hit (raised or lowered Notch signal); inactive = not a hit
The screen tested about 22,000 reagents; below is an unselected part of those that have a named target and a result. Of all reagents, 403 (1.9%) were called active. 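Unnormalised raw counts per well; ratio z-scores behind the hit calls and whether each hit raises or lowers signal are not deposited.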 Reagents against one gene are numbered here. A plus sign joins genes that one reagent is predicted to hit. No sequences are given here. The record does not give: the amount of reagent.

| gene knocked down | dsRNA no. | induced reporter light, run 1, well a | induced reporter light, run 1, well b | control promoter light, run 1, well a | control promoter light, run 1, well b | uninduced reporter light, run 1, well a | Outcome |
| --- | --- | --- | --- | --- | --- | --- | --- |
| CG4074 + CG4186 | 1 | 1.61e5 | 1.50e5 | 1.28e5 | 1.40e5 | 8235 | inactive |
| CG13428 | 1 | 1.19e5 | 77360 | 1.15e5 | 1.19e5 | 6035 | inactive |
| CG8584 | 1 | 1.83e5 | 1.37e5 | 1.96e5 | 2.07e5 | 13415 | inactive |
| CG13996 | 1 | 1.04e5 | 75005 | 1.26e5 | 1.16e5 | 5300 | inactive |
| CG9281 | 1 | 1.35e5 | 1.25e5 | 1.51e5 | 1.39e5 | 11465 | inactive |
| VhaPPA1-1 (Vacuolar H[+] ATPase PPA1 subunit 1) | 1 | 1.13e5 | 1.50e5 | 91925 | 93825 | 8815 | inactive |
| CG13455 | 1 | 1.94e5 | 1.87e5 | 2.72e5 | 2.09e5 | 9720 | inactive |
| ClC-c (Chloride channel-c) | 1 | 1.02e5 | 1.01e5 | 84820 | 75835 | 7995 | inactive |
| Lamtor2 + CG30120 | 1 | 1.10e5 | 1.25e5 | 1.53e5 | 1.37e5 | 9865 | inactive |
| Lamtor2 + CG30120 | 2 | 1.21e5 | 94395 | 1.14e5 | 1.09e5 | 9178 | inactive |
| porin | 1 | 2.36e5 | 2.46e5 | 1.92e5 | 1.82e5 | 19515 | inactive |
| Mks1 (Meckel syndrome, type 1) | 1 | 43575 | 40685 | 36485 | 35600 | 3175 | active |
| CG1792 | 1 | 1.55e5 | 1.33e5 | 2.23e5 | 2.34e5 | 11420 | inactive |
| RpL3 + CG6693 | 1 | 1.79e5 | 1.88e5 | 1.38e5 | 1.36e5 | 13490 | inactive |
| CG14106 | 1 | 74575 | 64270 | 93050 | 77140 | 5915 | inactive |
| CG30114 | 1 | 1.06e5 | 1.11e5 | 1.47e5 | 1.25e5 | 8350 | inactive |
| CR42545 (pseudo) | 1 | 56180 | 59485 | 55065 | 52735 | 3095 | inactive |
| CG34345 | 1 | 1.56e5 | 1.52e5 | 1.70e5 | 1.75e5 | 10765 | inactive |
| CG13713 | 1 | 1.98e5 | 2.15e5 | 2.72e5 | 1.99e5 | 8735 | inactive |
| cg (combgap) | 1 | 5345 | 4265 | 6705 | 4250 | 1875 | inactive |
| AttD (Attacin-D) | 1 | 1.72e5 | 1.63e5 | 2.50e5 | 2.28e5 | 11988 | inactive |
| CG43980 | 1 | 2.11e5 | 2.23e5 | 2.09e5 | 2.22e5 | 17542 | inactive |
| CG43980 | 2 | 33515 | 23900 | 20350 | 26475 | 1970 | inactive |
| pHCl-1 (pH-sensitive chloride channel 1) | 1 | 1.99e5 | 1.70e5 | 3.05e5 | 3.03e5 | 18410 | inactive |
| pHCl-1 (pH-sensitive chloride channel 1) | 2 | 1.97e5 | 1.62e5 | 1.99e5 | 1.85e5 | 6600 | inactive |
| pHCl-1 (pH-sensitive chloride channel 1) | 3 | 1.78e5 | 1.89e5 | 2.26e5 | 1.92e5 | 8138 | inactive |
| Cwc25 | 1 | 27720 | 21325 | 20500 | 15910 | 1750 | inactive |
| holn1 (hole-in-one) | 1 | 1.70e5 | 1.58e5 | 1.31e5 | 1.12e5 | 14025 | inactive |
| holn1 (hole-in-one) | 2 | – | – | – | – | – | inactive |
| CG7091 | 1 | 1.27e5 | 1.22e5 | 1.52e5 | 1.61e5 | 10215 | inactive |
| CG7091 | 2 | 4.19e5 | 3.30e5 | 2.96e5 | 2.86e5 | 25530 | inactive |
| Tmem63 (Transmembrane protein 63) | 1 | 1.74e5 | 1.87e5 | 2.42e5 | 2.06e5 | 17942 | inactive |
| CG32695 | 1 | 1.63e5 | 1.55e5 | 2.77e5 | 3.07e5 | 10845 | inactive |
| NimC3 (Nimrod C3) | 1 | 1.30e5 | 1.37e5 | 1.29e5 | 1.61e5 | 11405 | inactive |

Entries listed so far marked active, once more:
| gene knocked down | dsRNA no. | induced reporter light, run 1, well a | induced reporter light, run 1, well b | control promoter light, run 1, well a | control promoter light, run 1, well b | uninduced reporter light, run 1, well a | Outcome |
| --- | --- | --- | --- | --- | --- | --- | --- |
| Mks1 (Meckel syndrome, type 1) | 1 | 43575 | 40685 | 36485 | 35600 | 3175 | active |
